Experimental data from publication PMC7746308.
No constants are given. Whether binding was seen depends on the method and setting. In cells and extracts the contact can be indirect. Some results given as binding are weak or reduced against the parent protein; the word gives no strength.

Sequences of proteins named here, by UniProt entry; tags and fusion partners are left off.
UniProt P15873: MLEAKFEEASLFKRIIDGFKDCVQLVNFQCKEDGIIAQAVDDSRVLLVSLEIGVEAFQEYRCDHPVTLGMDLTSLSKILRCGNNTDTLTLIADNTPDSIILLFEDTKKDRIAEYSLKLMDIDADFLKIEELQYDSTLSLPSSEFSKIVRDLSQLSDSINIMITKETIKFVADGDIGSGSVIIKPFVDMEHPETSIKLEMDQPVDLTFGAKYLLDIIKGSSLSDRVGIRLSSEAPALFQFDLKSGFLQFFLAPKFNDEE
UniProt P32447: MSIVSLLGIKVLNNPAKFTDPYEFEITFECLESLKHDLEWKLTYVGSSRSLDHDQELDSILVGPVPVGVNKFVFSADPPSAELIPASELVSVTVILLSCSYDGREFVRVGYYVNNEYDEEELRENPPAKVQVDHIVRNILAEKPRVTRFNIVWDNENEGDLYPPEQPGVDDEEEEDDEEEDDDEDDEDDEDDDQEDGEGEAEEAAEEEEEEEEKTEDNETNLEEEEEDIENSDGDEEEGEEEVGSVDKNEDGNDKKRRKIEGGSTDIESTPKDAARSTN

Experiments:
[1] = target: T1, Spc29-mCherryp (S. cerevisiae) (UniProt P33419); experiment: FRET or BRET; FLIM-FRET: lifetime of GFP (donor) with an mCherry-tagged acceptor in live small-budded S. cerevisiae cells with a single nucleus; FRET efficiency from TCSPC decay histograms fitted with a double exponential function; Microtime 200 (Fig 6: Alba)
T1 sequence: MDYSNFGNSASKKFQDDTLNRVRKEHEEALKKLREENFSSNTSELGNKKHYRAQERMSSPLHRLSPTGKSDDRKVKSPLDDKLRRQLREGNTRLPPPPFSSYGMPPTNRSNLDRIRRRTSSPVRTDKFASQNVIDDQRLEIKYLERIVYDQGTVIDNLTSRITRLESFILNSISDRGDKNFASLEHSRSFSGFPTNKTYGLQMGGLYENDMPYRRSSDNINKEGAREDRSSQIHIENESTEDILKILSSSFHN

[2] = target: PCNA (S. cerevisiae) (UniProt P15873); experiment: as above

Asf1-GFPp (from UniProt P32447 1-279)
binding [1]: no binding | binding [2]: binds
